Reference: PubChem BioAssay AID493014 (National Center for Advancing Translational Sciences (NCATS), 2011)
Some of the results follow. These are further read-outs of the screen, such as a control signal, another cell line or another target. No call is given for them. The list favours compounds with an active or inconclusive main result. The note in brackets gives the kind of curve behind each potency; many fits are weak.

Assay: qHTS Assay to Find Inhibitors of Chronic Active B-Cell Receptor Signaling
Settings: ABC-DLBCL IkBa-CBG/CBR reporter, luminescence ratio (green luciferase fused to IkBa over red control in TMD8 lymphoma cells), 4 h
How it was run: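 TMD8 human ABC-DLBCL cells with doxycycline-inducible IκBα–green luciferase fusion and unfused red luciferase, in 0.5% FBS medium; compounds up to 46 uM, 4 h at 37C. Green/red luminescence ratio, filter-overlap corrected, fitted to concentration-response curves.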

[1] = measured here: CBR red luminescence, cell number
[2] = measured here: IkBa-CBG green luminescence

## CC(=O)Nc1ccccc1NC(=O)C/C(C)=N/NC(=O)C(=O)Nc1cccc(Cl)c1C
[1]
  AC50: 12.6 µM [falling, single point]

## COc1ccc(OCCSc2nnc(Cc3cccc4ccccc34)n2N)cc1
[1]
  AC50: 6.51 µM [rising, single point]

## Cc1onc(-c2ccccc2)c1C(=O)Nc1ccc(N2CCOCC2)cc1
[1]
  AC50: 2.06 µM [rising, partial curve, poor fit]

## CCOC(=O)c1cnc2c(-c3ccc(Cl)cc3)cnn2c1C
[1]
  AC50: 0.316 µM [rising, full curve, poor fit]

## COCc1cc(C)n(CC(=O)OC)c(=O)c1C#N
[1]
  AC50: 12.6 µM [rising, partial curve, poor fit]

## CCN1CCN(CCCOc2ccccc2-c2ccccc2)CC1
[1]
  AC50: 35.5 µM [falling, single point]

## O=c1[nH]c(CSc2ncc(-c3ccc(F)cc3)n2Cc2ccco2)nc2ccccc12
[1]
  AC50: 25.1 µM [falling, single point]

## Cc1cccc(NCC(=O)N/N=C\c2ccc[nH]2)c1
[1]
  AC50: 35.5 µM [rising, single point]

## CCOc1ccc(C(C)=O)cc1COC(=O)c1ccccc1C(=O)N(C)Cc1ccccc1
[1]
  AC50: 32.6 µM [falling, partial curve, poor fit]

## CC(C)[C@H]1CN=C2N(CCNC(=O)CCC3CCCCC3)[C@H](Cc3ccc(O)cc3)CN21
[1]
  AC50: 11.2 µM [falling, single point]

## COc1ccc(OCCC(=O)N2CCCCC2)cc1
[1]
  AC50: 16.4 µM [falling, single point]

## C=CCNc1oc(-c2cccc(F)c2)nc1C#N
[2]
  AC50: 23.1 µM [falling, single point]

## CCc1ccccc1OCC(=O)Nc1cc(S(=O)(=O)N2CCOCC2)ccc1N1CCCCC1
[1]
  AC50: 14.6 µM [falling, partial curve]

## CC1(C)CC2(CC(c3ccc(F)cc3)c3ccc(O)cc3O2)NC(=S)N1 (stereo not given)
[1]
  AC50: 17.8 µM [falling, single point]

## Cc1ccc2c(c1)C(=C(C#N)C#N)C(=O)N2CCN1CCOCC1
[1]
  AC50: 35.5 µM [falling, single point]

## CCCSc1sc(C(=O)OC)c(-c2cccs2)c1C#N
[1]
  AC50: 14.1 µM [rising, partial curve]

## COc1ccc(Cl)cc1C(=O)NC(=S)Nc1ccccc1N1CCOCC1
[1]
  AC50: 35.5 µM [falling, single point]

## COc1ccc(-c2cc(C(=O)N3CCN(c4ccc(F)cc4)CC3)no2)cc1OC
[1]
  AC50: 17.8 µM [falling, partial curve, poor fit]

## C/C(=N\NC(=S)Nc1ccccc1C)c1cc2ccccc2o1
[1]
  AC50: 8.91 µM [falling, partial curve]

## O=C(O)c1ccc(-c2nc3ccccc3[nH]2)cc1
[1]
  AC50: 23.1 µM [falling, single point]

## CN(C(=O)c1cccc(C#N)c1)c1nnc(-c2cnccn2)s1
[1]
  AC50: 0.517 µM [rising, partial curve, poor fit]

## CC(C)c1nc(=S)n(-c2ccccc2)[nH]1
[1]
  AC50: 17.8 µM [rising, single point]

## CCOC(=O)c1c(CC(C)C)csc1/N=C/C1C(=O)CCCC1=O
[1]
  AC50: 8.91 µM [falling, partial curve, poor fit]

## COC(=O)c1cc(Cl)c(NC(=O)c2cc(OC)c(OC)c(OC)c2)cc1OC
[1]
  AC50: 6.51 µM [rising, full curve]

## COc1ccc(/C=C2\CCc3ccccc3C2=O)c(OC)c1OC
[1]
  AC50: 3.98 µM [rising, partial curve, poor fit]

## C=CC(=O)Nc1cccc(Oc2ncnc3[nH]cc(-c4cnc5ccccc5c4)c23)c1
[1]
  AC50: 7.31 µM [falling, partial curve]

## CCOC(=O)/C(=C\C=C\N1CCOCC1)C(C)=O
[1]
  AC50: 3.98 µM [rising, full curve, poor fit]

## Cc1ccc(NC(=O)Cn2c(O)c(N=NC(=O)c3cc([N+](=O)[O-])ccc3O)c3ccccc32)cc1
[1]
  AC50: 0.316 µM [falling, full curve]

## COc1ccc(OC)c(S(=O)(=O)N2CCC3(CC2)OCCN3S(=O)(=O)c2ccccc2)c1
[1]
  AC50: 6.51 µM [rising, partial curve, poor fit]

## CC(C)(C)OC(=O)C1=C(CO)CS[C@@H]2[C@H](NC(=O)Cc3ccccc3)C(=O)N12
[1]
  AC50: 32.6 µM [falling, partial curve, poor fit]

## CCN(CC)c1ccc(/C=N/NC(=O)c2c(Cl)cnn2C)c(O)c1
[1]
  AC50: 7.31 µM [falling, partial curve, poor fit]

## Oc1cccc(/C=N/c2c(-c3ccco3)nc3ccccn23)c1
[1]
  AC50: 28.2 µM [falling, partial curve, poor fit]

## COc1ccc(-c2nnn(CC(=O)N3CCN(c4ccccc4OC)CC3)n2)cc1OC
[1]
  AC50: 2.51 µM [rising, partial curve, poor fit]

## CCCN(CC(=O)Nc1ccccc1OC)C(=O)CN1C(=O)NC2(CCCCC2)C1=O
[1]
  AC50: 29.1 µM [rising, partial curve, poor fit]

## Cc1c(C(=O)Nc2ccc(F)cc2)oc2ccc(S(=O)(=O)N3CCC4(CC3)OCCO4)cc12
[1]
  AC50: 10 µM [falling, partial curve]

## CCOC(=O)C1(Cc2cccc(Cl)c2)CCCN(C(=O)c2ccc(C)nc2)C1 (stereo not given)
[1]
  AC50: 35.5 µM [rising, single point]

## COc1ccc(NS(=O)(=O)c2cccc(C(=O)NCC(c3ccc(OC)cc3)N3CCCC3)c2)cc1 (stereo not given)
[1]
  AC50: 6.51 µM [falling, partial curve, poor fit]

## O=C(Nc1nnc(C2CC2)s1)c1ccccn1
[1]
  AC50: 10 µM [falling, partial curve]

## NC(=O)c1ccccc1NC(=O)c1ccc2ccccc2c1
[1]
  AC50: 25.1 µM [falling, single point]

## Nc1ccccc1C(=O)N1CCc2ccccc21
[1]
  AC50: 12.6 µM [falling, partial curve]

## CSc1ccc(/C=N\NC(=O)COc2ccc(Cl)cc2Br)cc1
[1]
  AC50: 3.16 µM [rising, full curve, poor fit]

## CC(C)Oc1cccc(C(=O)NC(=S)Nc2cccnc2)c1
[1]
  AC50: 16.4 µM [falling, partial curve]

## C/C=C/C(=O)N1CC2(CC(c3cccc(NC(=O)CC(c4ccccc4)c4ccccc4)c3)=NO2)C[C@H]1C(N)=O (stereo not given in full)
[1]
  AC50: 1.58 µM [rising, partial curve]

## O=C(O)CCc1ccc(-c2cccs2)n1Cc1ccco1
[1]
  AC50: 25.9 µM [rising, single point]

## N[C@@H](Cc1ccccc1)c1nnc(SCc2ccccc2Cl)o1
[2]
  AC50: 29.1 µM [falling, single point]

## CCCCCCN(C(=O)CCl)c1ccccc1
[1]
  AC50: 7.94 µM [falling, partial curve]

## CCCCN1C(=O)C2Cc3c([nH]c4ccccc34)CN2C1=S (stereo not given)
[1]
  AC50: 35.5 µM [falling, single point]

## Cc1cc(C)nc(NC(=O)c2ccc(Cl)cc2)n1
[1]
  AC50: 5.62 µM [rising, single point]

## Cc1ccc(-n2c(SCC(=O)OC(C)C)nnc2-c2cnccn2)cc1
[1]
  AC50: 35.5 µM [rising, single point]

## CCc1nnc(NC(=O)CSc2nccn2-c2cccc(C)c2C)s1
[1]
  AC50: 22.4 µM [falling, single point]

## Cc1cc(N2CCN(C)CC2)ccc1NC(=O)c1c2c(nc3ccccc13)CCN(Cc1ccccc1)C2
[1]
  AC50: 5.62 µM [falling, single point]

## O=C(NCCc1ccncc1)C12CC3CC(CC(C3)C1)C2
[1]
  AC50: 29.1 µM [rising, single point]

## C/C(Cl)=C\Cn1c(Nc2ccccc2)nc2c1c(=O)n(C)c(=O)n2C
[1]
  AC50: 2.24 µM [falling, full curve, poor fit]

## CC(OC(=O)c1ccc(NC(=O)CC#N)cc1)C(=O)Nc1ccc2c(c1)OCCO2 (stereo not given)
[1]
  AC50: 23.1 µM [falling, partial curve, poor fit]

## CCSC1=C(C#N)C(c2ccc(Cl)cc2)C2=C(CCCC2=O)N1 (stereo not given)
[1]
  AC50: 18.4 µM [falling, single point]

## CCCS(=O)(=O)N1CCC(C(=O)NCCN2CCCC2)CC1
[1]
  AC50: 0.146 µM [falling, full curve, poor fit]

## CCOc1cc(/C=N\NC(N)=O)cc(Br)c1OC(C)C
[1]
  AC50: 18.4 µM [rising, partial curve, poor fit]
[2]
  AC50: 23.1 µM [falling, partial curve, poor fit]

## Cc1ccc(/C=N/NC(=O)c2csc3c2CCCC3)cc1
[1]
  AC50: 2.24 µM [falling, partial curve]
[2]
  AC50: 28.2 µM [falling, single point]

## CCOC(=O)C1(CCOc2ccccc2)CCN(Cc2ccc(O)cc2)CC1
[1]
  AC50: 15.8 µM [falling, partial curve, poor fit]

## CCCc1cc(=O)oc2c(C)c(OCC(=O)NCCN3CCOCC3)ccc12
[1]
  AC50: 25.1 µM [rising, single point]

## COC(=O)c1ccc2c(=O)n(CCCCCC(=O)NCc3ccc(OC)cc3)c(=O)[nH]c2c1
[1]
  AC50: 1.26 µM [falling, partial curve, poor fit]

## CNC(=O)C1C2C=CC3(O2)C1C(=O)N(C1CC1)C3C(=O)NCc1ccc(OC)cc1 (stereo not given)
[1]
  AC50: 6.51 µM [rising, full curve, poor fit]

## CC(C)COc1ccc(CNC(=S)N/N=C/c2ccc([N+](=O)[O-])cc2)cc1
[1]
  AC50: 29.1 µM [rising, partial curve, poor fit]
